Experimental data: PubChem BioAssay AID652259 (Drosophila RNAi Screening Center, 2013)
In all, the deposit lists about 22,000 reagents; shown is a random part of those that have a named target and a result. Of all reagents, 233 (1.1%) were called active. 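Light values are raw, unnormalised plate reads; the ratio scores behind the reporter calls were not deposited.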 The numbers tell different reagents against one gene apart. A plus sign joins genes that one reagent is predicted to hit. No sequences are given here. Not stated in the record: the amount of reagent, the time to read-out, the dose of the treatment.

- Purpose: 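Identify new Wingless signalling regulators in fly cells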 (primary screen)
- Cell system: Drosophila clone 8 imaginal disc epithelial cells
- Knock-down reagent: long dsRNA against Drosophila genes
- Conditions: pathway stimulated by co-transfected Wingless expression plasmid
- Measurement: 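Dual luciferase reads per well after Wingless plasmid stimulation: reporter firefly light and Renilla control light; activity is firefly divided by Renilla, a ratio not deposited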
- Scale: firefly reporter light: higher = more Wg reporter light, before normalisation; Renilla control light: higher = more transfected or surviving cells
- Hit rule: 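a knock-down is a candidate when at least two out of four statistical tests show it departing from its plate mean; one test alone signals a weak candidate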
- Calls: active = candidate regulator (raises or lowers reporter); inactive = not a candidate

gene,reagent no.,"reporter change call, replicate 1","firefly reporter light, replicate 1","firefly reporter light, replicate 2","Renilla control light, replicate 1","Renilla control light, replicate 2",activity call
Ogg1 (8-oxoguanine DNA glycosylase),1,,3015,4304,935,1675,inactive
CG30172,1,,7.37e5,8.12e5,3.76e5,3.51e5,inactive
Debcl (Death executioner Bcl-2),1,,13729,,4284,,inactive
lncRNA:roX1 (long non-coding RNA on the X 1),1,,4.55e5,4.85e5,1.96e5,2.37e5,inactive
Tango4 (Transport and Golgi organization 4),1,,2688,5824,584,1209,inactive
Prp6 (pre-mRNA processing factor 6),1,,7620,,3376,,inactive
Prp6 (pre-mRNA processing factor 6),2,,3.35e5,3.51e5,1.16e5,1.09e5,inactive
CtsF (Cathepsin F),1,,2352,,1539,,inactive
CtsF (Cathepsin F),2,,4233,,989,,inactive
CtsF (Cathepsin F),3,,8376,,1338,,inactive
CG10565,1,,4325,,1354,,inactive
CG31807,1,,11061,,6003,,inactive
CG42634 + CG42635,1,,3077,9366,1003,4067,inactive
btsz (bitesize),1,,16329,,1820,,inactive
btsz (bitesize),2,Wg reporter activity raised,27333,,2102,,active
btsz (bitesize),3,,13785,,3716,,inactive
btsz (bitesize),4,,11233,,2221,,inactive
CG7058,1,,9152,,7491,,inactive
CG9777,1,,24666,,10832,,inactive
CG32161,1,,5.90e5,5.86e5,2.09e5,2.11e5,inactive
key (kenny),1,,19296,,5480,,inactive
ms(2)34Fe (male sterile (2) 34Fe),1,,2787,5890,1008,2392,inactive
Ugt36F1 (UDP-glycosyltransferase family 36 member F1),1,,2631,6707,530,2596,inactive
trh (trachealess),1,,8573,,4058,,inactive
trh (trachealess),2,,5126,,3939,,inactive
nht (no hitter),1,,4612,9128,1698,4880,inactive
Rsph3 (Radial spoke head protein 3),1,,5557,,2896,,inactive
Rsph3 (Radial spoke head protein 3),2,,1649,7457,1657,4729,inactive
mRpL41 (mitochondrial ribosomal protein L41),1,,4851,,1900,,inactive
Nhe1 (Na[+]/H[+] hydrogen exchanger 1),1,,11760,,2992,,inactive
modSP (modular serine protease),1,,24448,,6740,,inactive
modSP (modular serine protease),2,,10235,,2659,,inactive
modSP (modular serine protease),3,,4.85e5,4.73e5,3.66e5,2.23e5,inactive

Reprinted from the entries so far for reference:
gene,reagent no.,"reporter change call, replicate 1","firefly reporter light, replicate 1","firefly reporter light, replicate 2","Renilla control light, replicate 1","Renilla control light, replicate 2",activity call
ms(2)34Fe (male sterile (2) 34Fe),1,,2787,5890,1008,2392,inactive
Ugt36F1 (UDP-glycosyltransferase family 36 member F1),1,,2631,6707,530,2596,inactive
trh (trachealess),1,,8573,,4058,,inactive
trh (trachealess),2,,5126,,3939,,inactive
nht (no hitter),1,,4612,9128,1698,4880,inactive
Rsph3 (Radial spoke head protein 3),1,,5557,,2896,,inactive

More records:
gene,reagent no.,"reporter change call, replicate 1","firefly reporter light, replicate 1","firefly reporter light, replicate 2","Renilla control light, replicate 1","Renilla control light, replicate 2",activity call
CG17065,1,,18528,,9792,,inactive
CG31776,1,,2501,8214,1129,2905,inactive
Spn28B (Serpin 28B),1,,3064,7720,265,3570,inactive
CG8173,1,,14723,,8311,,inactive
Pxt (Peroxinectin-like),1,,13836,,2240,,inactive
CG30037,1,,3625,,1589,,inactive
CG13698,1,,3782,,1513,,inactive
lectin-30A,1,,1895,4253,729,2519,inactive
lncRNA:CR32027 (long non-coding RNA:CR32027),1,,4235,,1750,,inactive
pot (papillote),1,,2609,6554,1129,2608,inactive
SCCRO (Squamous cell carcinoma-related oncogene),1,,7209,,2721,,inactive
Atg16 (Autophagy-related 16),1,,3222,8202,1299,1933,inactive
Atg16 (Autophagy-related 16),2,,6041,,1962,,inactive
Atg16 (Autophagy-related 16),3,,5691,,1986,,inactive
colt (congested-like trachea),1,,11734,,3805,,inactive
CtIP (CTBP-interacting protein),1,,23008,,6304,,inactive
snRNA:U1:95Cc + CG43285 (retired record),1,,2780,,853,,inactive
CG15449,1,,28147,,12608,,inactive
RhoL (Rho-like),1,,8948,,3206,,inactive
Tom7 (Translocase of outer membrane 7),1,,13248,,6960,,inactive
Tom7 (Translocase of outer membrane 7),2,,3577,5242,1069,2697,inactive
CG17169,1,,16947,,8467,,inactive
CG12640,1,,26387,,9031,,inactive
CG31908,1,,6.04e5,6.12e5,1.64e5,1.72e5,inactive
GstT2 (Glutathione S transferase T2),1,,2145,6944,928,3620,inactive
CG10486,1,,1456,4241,1205,3312,inactive
PolQ (DNA polymerase theta),1,,15403,,5222,,inactive
Tsp3A (Tetraspanin 3A),1,,18341,,14625,,inactive
CG12744,1,,6496,,1463,,inactive
Cyp6g2 (Cytochrome P450 6g2),1,,6475,,2484,,inactive
Gdi (GDP dissociation inhibitor),1,,10470,,4610,,inactive
CG17780 + CG17781,1,,15052,,11155,,inactive
CG30010,1,,14795,,7316,,inactive
Cap-D2 (CAP-D2 condensin subunit),1,,5056,7044,1108,1779,inactive
MED26 (Mediator complex subunit 26),1,,7617,,930,,inactive
MED26 (Mediator complex subunit 26),2,,28775,,9677,,inactive
MED26 (Mediator complex subunit 26),3,Wg reporter activity raised,7256,14138,576,1363,active
Gnptab,1,,3168,5863,746,2172,inactive
Fur1 (Furin 1),1,,5171,,1111,,inactive
Fur1 (Furin 1),2,,2624,3648,1772,641,inactive
